{"source": "PubChem BioAssay AID662", "about": "(National Center for Advancing Translational Sciences (NCATS), 2007)", "note": "Where “and” joins values, the source holds several entries; their conditions need not be identical. Equal values may be shown once. This is one part of the list. Shown are side measurements of this screen, not its main read-out; they come without a call. The list favours compounds with an active or inconclusive main result. The note in brackets gives the kind of curve behind each potency; many fits are weak.", "data": [{"assay": "Cell signaling CRE-BLA (Fsk stim)", "settings": "CHO CRE-bla reporter (cAMP response element driving beta-lactamase), forskolin EC10, beta-lactamase ratio; measured here: 460 nm blue channel", "procedure,_shortened": "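CRE-bla CHO reporter cells treated with compound titration plus EC10 NKH 477 (water-soluble forskolin), incubated 3 h at 37 °C; CCF4 loading 2 h at room temperature, 460/530 nm emission ratio read, AC50 values derived for positive or negative modulators.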", "values": [{"smiles": "CCC(CC)C(=O)Nc1nnc(SCC(=O)N2CCN(c3ccccc3OC)CC2)s1", "AC50": "3.16 µM [falling, single point]"}, {"smiles": "COc1ccc(-n2nnnc2SCC(=O)NCc2ccco2)cc1OC", "AC50": "20 µM [rising, single point]"}, {"smiles": "CCOC(=O)c1c(N)nn(C(=O)C(C)C)c1-c1ccccc1", "AC50": "12.6 µM [rising, single point]"}, {"smiles": "O=C(O)C1CCN(Cc2cnn(-c3ccccc3)c2-n2cccc2)CC1", "AC50": "12.6 µM [falling, partial curve, poor fit]"}, {"smiles": "Cc1nc2sccn2c1-c1nc(-c2cc3ccccc3o2)cs1", "AC50": "10 µM [rising, partial curve]"}, {"smiles": "O=C(Cc1ccc(Cl)cc1)Nc1ccc(N2CCN(C(=O)c3ccco3)CC2)c(Cl)c1", "AC50": "10 µM [falling, single point]"}, {"smiles": "O=C(Cn1cccc1)Nc1ccc(OC(F)(F)F)cc1", "AC50": "0.00631 µM [falling, full curve, poor fit]"}, {"smiles": "COc1cc(Cn2c(N)c(C#N)c3nc4ccccc4nc32)cc(OC)c1", "AC50": "10 µM [rising, partial curve]"}, {"smiles": "N#CC(C(=O)NC1CC1)c1nc2ccccc2nc1N1CCCC1", "note": "(stereo not drawn)", "AC50": "6.31 µM [rising, partial curve]"}, {"smiles": "Cc1ccc(N2CC(C(=O)Nc3nnc(C)s3)CC2=O)cc1", "note": "(stereo not drawn)", "AC50": "2 µM [rising, partial curve]"}, {"smiles": "O=C1Cc2c([nH]c3ccc(Br)cc23)-c2ccccc2N1", "AC50": "7.94 µM [falling, full curve] and 5.01 µM [falling, partial curve]"}, {"smiles": "Cn1c(=O)oc2cc(S(=O)(=O)N3CCC(C(=O)N4CC=C(c5ccccc5)CC4)CC3)ccc21", "AC50": "10 µM [falling, partial curve]"}, {"smiles": "Cc1cccc(CNc2ncncc2-c2cccc(NS(C)(=O)=O)c2)c1", "AC50": "25.1 µM [rising, single point]"}, {"smiles": "CCOC(=O)Nc1oc2ccccc2c(=O)c1CN1CCOCC1", "AC50": "12.6 µM [rising, partial curve]"}, {"smiles": "CCOC(=O)c1cnc2c(C)c(Cl)ccc2c1N1CCOCC1", "AC50": "3.16 µM [rising, partial curve]"}, {"smiles": "O=C(Nc1ccc2c(c1)OCO2)C1CCN(S(=O)(=O)c2cccs2)CC1", "AC50": "3.16 µM [rising, partial curve]"}, {"smiles": "COc1ccccc1NC(=O)c1nnn(CC(=O)Nc2cccc(SC)c2)c1N", "AC50": "20 µM [falling, single point]"}, {"smiles": "COc1cc(NC(=O)CN2c3cccc4cccc(c34)S2(=O)=O)cc(OC)c1OC", "AC50": "10 µM [rising, partial curve]"}, {"smiles": "Cn1c(/N=C/c2c(O)ccc3ccccc23)nc2ccccc21", "AC50": "0.00316 µM [falling, full curve, poor fit]"}, {"smiles": "Nc1nc(-c2ccccc2)nc(-c2ccccc2O)n1", "AC50": "15.8 µM [falling, partial curve]"}, {"smiles": "O=c1c(-c2ccccc2)nc2cnc(Oc3ccccc3)nc2n1C[C@H]1CCCO1", "AC50": "10 µM [rising, single point]"}, {"smiles": "Cc1ccc2nsnc2c1NS(=O)(=O)c1c(C)ccc2nsnc12", "AC50": "25.1 µM [falling, partial curve, poor fit]"}, {"smiles": "Cc1ccc(-c2nnc(SCC(=O)O)n2N)cc1", "AC50": "25.1 µM [rising, single point]"}, {"smiles": "Cc1[nH]c2ccccc2c1-c1nc2ccccc2[nH]1", "AC50": "0.01 µM [falling, full curve, poor fit]"}, {"smiles": "O=C(Nc1c(F)cc(F)cc1Br)c1cc(-c2ccc(O)cc2)on1", "AC50": "10 µM [falling, partial curve]"}, {"smiles": "CN(Cc1cnn(C)c1)C(=O)c1cc2ccccc2oc1=O", "AC50": "0.126 µM [falling, single point]"}, {"smiles": "O=S(=O)(NCCSc1ccccc1)c1cccs1", "AC50": "5.01 µM [falling, partial curve]"}, {"smiles": "N#CC1=C(N)N(c2ccccc2)C(c2ccco2)C1(C#N)C#N", "note": "(stereo not drawn)", "AC50": "10 µM [rising, single point]"}, {"smiles": "Cc1ccc2oc(-c3ccco3)nc2c1", "AC50": "25.1 µM [rising, single point]"}, {"smiles": "Cc1cccc(S(=O)(=O)Nc2cccc(-c3cn4ccsc4n3)c2)c1", "AC50": "2 µM [rising, partial curve]"}, {"smiles": "c1cncc(-c2nc(N3CCNCC3)c3ccccc3n2)c1", "AC50": "15.8 µM [rising, single point]"}, {"smiles": "C[C@@]12CCC(=O)C=C1CC[C@H]1[C@H]3CC[C@](O)(C(=O)CO)[C@]3(C)CC[C@@H]12", "AC50": "25.1 µM [falling, partial curve]"}, {"smiles": "CS(=O)(=O)Nc1ccc(C(=O)Nc2ccccc2C(=O)N2CCCC2)cc1", "AC50": "3.98 µM [falling, full curve, poor fit]"}, {"smiles": "O=C1c2ccccc2CC[C@H]1CNCCc1ccc(O)cc1", "AC50": "25.1 µM [falling, partial curve]"}, {"smiles": "COc1ccc(C(=O)COC(=O)CCN=C2NS(=O)(=O)c3ccccc32)cc1OC", "AC50": "10 µM [rising, partial curve]"}, {"smiles": "Cc1cc(C)n(-c2nc3c(c(=O)n(C)c(=O)n3C)n2Cc2cccc(Br)c2)n1", "AC50": "31.6 µM [falling, single point]"}, {"smiles": "O=C(Nc1c(C(=O)N2CCOCC2)cnn1-c1ccccc1Cl)c1ccco1", "AC50": "6.31 µM [rising, partial curve]"}, {"smiles": "FC(F)(F)c1cc(-c2cccs2)nc(N2CCOCC2)n1", "AC50": "25.1 µM [rising, single point]"}, {"smiles": "CCOc1ccccc1NC(=O)CSc1ncnc2c1oc1ccccc12", "AC50": "0.398 µM [rising, full curve]"}, {"smiles": "Cc1cc(C(=O)CSc2nnc(-c3ccco3)o2)c(C)n1-c1ccc2c(c1)OCCO2", "AC50": "25.1 µM [falling, single point]"}, {"smiles": "COc1ccccc1NC(=O)c1ccc(Cl)c(S(=O)(=O)N2CCOCC2)c1", "AC50": "0.00398 µM [falling, full curve]"}, {"smiles": "CCOC(=O)N1CCN(C(=O)CCc2c(C)nc3nc(C)nn3c2C)CC1", "AC50": "1 µM [falling, full curve]"}, {"smiles": "COc1ccccc1Oc1ccc(S(=O)(=O)NCc2ccccn2)cc1", "AC50": "25.1 µM [rising, single point]"}, {"smiles": "CS(=O)(=O)N(CC(=O)Nc1ccc2c(c1)OCCO2)Cc1ccc(Cl)cc1", "AC50": "0.794 µM [falling, full curve, poor fit]"}, {"smiles": "CN(C)c1ncc2ncc(=O)n(C3CC3)c2n1", "AC50": "15.8 µM [rising, partial curve]"}, {"smiles": "COc1cc(NC(=O)c2cc(C(C)C)on2)cc(OC)c1OC", "AC50": "10 µM [rising, partial curve]"}, {"smiles": "O=C1CCCC(O)=C1C1C2=C(CCCC2=O)Oc2ccccc21", "note": "(stereo not drawn)", "AC50": "6.31 µM [falling, partial curve]"}, {"smiles": "CN(C)c1ncc2nc(CCc3ccccc3)c(=O)n(C[C@H]3CCCO3)c2n1", "AC50": "12.6 µM [rising, partial curve]"}, {"smiles": "COC(=O)c1ccccc1NC(=O)C1CC(c2ccccc2O)=NO1", "note": "(stereo not drawn)", "AC50": "12.6 µM [falling, partial curve]"}, {"smiles": "COCCNc1nc(C)nc2c1nc(-c1ccccc1)n2CCN(C)C", "AC50": "12.6 µM [rising, partial curve]"}, {"smiles": "CCn1c(=O)cc(SCC(=O)NCc2ccco2)c2ccccc21", "AC50": "10 µM [rising, partial curve]"}, {"smiles": "CC(=O)NCCNc1nc(-c2ccc(N(C)C)cc2)nc2ccccc12", "AC50": "12.6 µM [rising, partial curve]"}, {"smiles": "Cc1ccc(C2NC(=O)c3c(sc4c3CCN(C)C4)N2)o1", "note": "(stereo not drawn)", "AC50": "5.01 µM [rising, full curve, poor fit]"}, {"smiles": "O=C(O)c1cccn2c(=O)c3ccccc3nc12", "AC50": "20 µM [rising, single point]"}, {"smiles": "CC(=O)c1ccc2c(c1)Nc1ccccc1S2", "AC50": "2.51 µM [falling, full curve, poor fit]"}, {"smiles": "CCOC(=O)CSc1nnc(CNC(=O)c2cccs2)n1Cc1ccccc1", "AC50": "25.1 µM [rising, single point]"}, {"smiles": "CCCn1c(=O)c(C(=O)Nc2ccccc2C(=O)OCC)c(O)c2ccccc21", "AC50": "0.251 µM [rising, full curve]"}, {"smiles": "COc1ccc(CCNC(=O)CSc2nc(N)c3c(C)c(C)oc3n2)cc1OC", "AC50": "12.6 µM [rising, single point]"}, {"smiles": "CN(C)c1ccc(-c2nc(N3CCNCC3)c3ccccc3n2)cc1", "AC50": "10 µM [rising, partial curve]"}, {"smiles": "COc1ccc(OC)c(-c2cc(C(=O)Nc3c(C)nn(Cc4ccccc4)c3C)no2)c1", "AC50": "5.01 µM [rising, partial curve]"}, {"smiles": "O=C(CCNS(=O)(=O)c1ccc2c(c1)CCC(=O)N2)NCc1cccnc1", "AC50": "3.98 µM [falling, single point]"}, {"smiles": "Cc1cc(N=Cc2cc(Br)ccc2O)no1", "AC50": "0.794 µM [rising, single point]"}, {"smiles": "O=C(c1ccco1)N1C(=O)c2cccc3cccc1c23", "AC50": "10 µM [rising, partial curve, poor fit]"}, {"smiles": "Nc1c(Sc2ccccc2)c(=O)[nH]c(=O)n1Cc1ccccc1", "AC50": "5.01 µM [falling, single point]"}, {"smiles": "O=C(CN1C(=O)C2CC=CCC2C1=O)Nc1nc2ccccc2[nH]1", "note": "(stereo not drawn)", "AC50": "31.6 µM [falling, single point]"}, {"smiles": "CCN(CC)CCCNC(=O)c1cn(CCOC)c(=O)c2c1c1ccccc1n2C", "AC50": "3.16 µM [rising, partial curve]"}, {"smiles": "COc1cc2[nH]c3c(N4CCN(c5ccc(Cl)cc5)CC4)ncnc3c2cc1OC", "AC50": "10 µM [rising, single point]"}, {"smiles": "O=S(=O)(Cc1ccccc1)NCc1ccccn1", "AC50": "0.00398 µM [falling, full curve, poor fit]"}]}]}
